About 17,000 (5.5%) of roughly 310,000 compounds were called active. This list was built around the results that the source calls inconclusive (neither active nor inactive); the mix of calls is not that of the screen. Calls follow the shape of the dose curve; as a rule, active = well fitted inhibition curve with a large enough effect; inconclusive = small, poorly fitted or top-dose-only effect, or effect the other way; inactive = no such curve, though single readings can be large or run the other way. Potencies beside an inconclusive call are fits to weak or partial responses and may not hold up.
biological target: Nuclear receptor ROR-gamma (Mus musculus) (UniProt P51450); experiment: qHTS for inhibitors of ROR gamma transcriptional activity; settings: Drosophila S2 Gal4-RORgamma UAS-luciferase reporter, 20 h; series mostly up to 53.6 µM; also: nearly all actives have a fitted effect of over 60% in size
In short: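 Schneider cells (Drosophila), stable Gal4 DBD–ROR gamma + UAS-luc; 1 hr cmpd preincubation; Cu2+ induction 700 uM final; 20 hr ambient; luminescence.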
Potency is read from the fitted curve at half-maximal effect.

Protein sequences, listed by entry. Tags and fused reporters are not part of them. Lines headed by an entry give the natural chain unless they say otherwise; changes in a name come on top.
UniProt P51450: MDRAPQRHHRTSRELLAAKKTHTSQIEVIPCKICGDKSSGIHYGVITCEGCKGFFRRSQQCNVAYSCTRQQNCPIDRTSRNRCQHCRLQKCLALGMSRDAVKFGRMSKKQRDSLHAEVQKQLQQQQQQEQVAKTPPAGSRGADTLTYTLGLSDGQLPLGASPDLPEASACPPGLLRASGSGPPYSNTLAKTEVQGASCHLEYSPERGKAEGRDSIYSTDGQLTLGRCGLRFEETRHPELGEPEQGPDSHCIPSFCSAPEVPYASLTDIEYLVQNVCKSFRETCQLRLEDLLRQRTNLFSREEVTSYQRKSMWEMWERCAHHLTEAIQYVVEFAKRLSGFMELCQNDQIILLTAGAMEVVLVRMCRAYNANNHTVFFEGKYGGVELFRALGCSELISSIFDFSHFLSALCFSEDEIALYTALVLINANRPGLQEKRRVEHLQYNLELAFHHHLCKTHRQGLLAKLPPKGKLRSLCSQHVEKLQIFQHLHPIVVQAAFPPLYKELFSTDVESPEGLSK

Compound | Potency
COc1ccc(-n2cc(C(=O)c3ccccc3O)cn2)cc1 | inconclusive: 10 µM [inhibitor, partial curve]
CCCc1nc2c(c(=O)c3ccccc3n2C)c(=O)n1-c1ccc(F)cc1 | inconclusive: 31.6 µM [activator, single point]
Cc1nn(Cc2ccc(F)cc2)c(C)c1NC(=O)c1cc(-c2ccc3c(c2)OCO3)on1 | inconclusive: 14.1 µM [activator, single point]
CC(C)(C)c1ccc(C(=O)Nc2ccc(C(=O)N3CCCC3)cc2)cc1 | inconclusive: 5.01 µM [activator, single point]
COc1ccc(CNC(=O)CN(Cc2ccc(OC)cc2)C(=O)c2csnn2)cc1 | inconclusive: 22.4 µM [activator, single point]
Cc1ccc(-n2c(SCC(=O)NCc3ccco3)nc3sc(C)c(C)c3c2=O)cc1 | inconclusive: 0.447 µM [activator, full curve, poor fit]
CCCC1(c2ccccc2)NC(=O)N(CCN2C(=O)c3ccccc3C2=O)C1=O (stereo not drawn) | inconclusive: 14.1 µM [activator, partial curve]
COc1cccc(NC(=O)Cc2nc(-c3ccccc3)sc2-c2ccc(C)cc2)c1 | inconclusive: 31.6 µM [inhibitor, single point]
O=C(c1ccccc1)N1CCN(C(=O)c2nn3c(C(F)(F)F)cc(-c4ccccc4)nc3c2Br)CC1 | inconclusive: 11.2 µM [activator, partial curve]
O=C(CSc1nnc(CNc2ccc(Cl)cc2)o1)Nc1nc2ccccc2s1 | active: 14.1 µM
CCNC(=S)N1CCc2cc(OC)c(OC)cc2C1COc1ccccc1OC (stereo not drawn) | inconclusive: 14.1 µM [inhibitor, single point]
CCC(=O)NC(=S)NNC(=O)c1ccc([N+](=O)[O-])cc1 | inconclusive: 15.8 µM [inhibitor, single point]
Cc1nc2ccccc2c(=O)n1/N=C/c1cn[nH]c1-c1ccccc1 | inconclusive: 12.6 µM [activator, single point]
CCn1c(=S)[nH]c2nc3c(cc2c1=O)CCCC3 | active: 1.58 µM
CC(NC(=O)c1ccc(F)cc1)c1nc2ccccc2n1Cc1ccccc1F (stereo not drawn) | active: 17.8 µM
Cc1ccc(NC(=S)Nc2ccc(C(C)C)cc2)cc1S(=O)(=O)N1CCCCCC1 | active: 3.16 µM
NC(=S)N/N=C/c1ccc(-c2ccc([N+](=O)[O-])cc2)o1 | active: 7.08 µM
CCOC(=O)C1CCN(C(c2cccs2)c2sc3nc(C)nn3c2O)CC1 (stereo not drawn) | inactive

Of the compounds above, 2 have an NH in an aromatic ring:
Compound | Potency
Cc1nc2ccccc2c(=O)n1/N=C/c1cn[nH]c1-c1ccccc1 | inconclusive: 12.6 µM [activator, single point]
CCn1c(=S)[nH]c2nc3c(cc2c1=O)CCCC3 | active: 1.58 µM

Source: PubChem BioAssay AID2551 (National Center for Advancing Translational Sciences (NCATS), 2010)
